IC50 data for 1 compound are collected here from patent US11046715B2, “Boronic derivatives of hydroxamates as anticancer agents” (Xavier University of Louisiana, priority 2016, dated 2021).

The experiment deals with SK-OV-3: human ovarian cancer. Kind of experiment: In vitro cytotoxicity / antiproliferation, SK-OV-3. Particulars: SK-OV-3, read-out: Antiproliferation activity (IC50). In kind it is cell-based. As to the method:
The in vitro cytotoxicity of boronic derivatives of hydroxamates was tested against various cancer cell lines; the results are provided in Table 1.

For the compound `O=C(CCCCCCC(=O)Nc1ccccc1)NO` [Vorinostat, reference compound], the IC50 was 124 nM.
